Experimental data: patent US20020182232A9, “Cosmetic composition comprising at least one ingredient chosen from compounds of formula (I) and salts thereof, use thereof as colouring agent, and novel compounds of formulae (IIa), (IIIa), (IVa), (Va), and (VIa), and salts thereof” (priority 2000, published 2002)

Assay: Colouring strength: colorimetric L, a, b and C values (Minolta CR-300)
Format: physicochemical
Settings: colorimeter; for a (red-green axis) / b (yellow-blue axis) / L (luminance): L a b system; for L (luminance): pure compacted compound or TiO2/petroleum jelly mixture not specified

Structure (SMILES) | c (saturation of the compound) | a (red-green axis) | b (yellow-blue axis) | L (luminance)
O=C1c2ccccc2C(=O)c2c1oc1c2cc(Cl)c2ccccc21 [5-chlorodinaphtho-(1,2-b:2′,3′-d)furan-7,12-dione] | 103 | −2.7 | 103 | 85.7
O=C1c2ccccc2C(=O)c2c1oc1c2ccc2ccccc21 [Dinaphtho(1,2-b:2′,3′-d)furan-7,12-dione, dinaphtho(1,2-b:2′,3′-d)furan-7,12-dione] | 108 | 0.19 | 108 | 88.5
O=C1c2ccccc2C(=O)c2c1oc1c2ccc2ccc(O)cc21 [2-Hydroxy-dinaphtho(1,2-b:2′,3′-d)furan-7,12-dione] | 62.9 | 43.9 | 45.0 | 47.4
COc1ccc2ccc3oc4c(c3c2c1)C(=O)c1ccccc1C4=O [2-methoxydinaphtho-(2,1-b:2′,3′-d)furan-8,13-dione] | 78.8 | 53.0 | 58.4 | 54.5
COc1ccc2c(ccc3oc4c(c32)C(=O)c2ccccc2C4=O)c1 [3-methoxydinaphtho-(2,1-b:2′,3′-d)furan-8,13-dione] | 92.4 | 34.2 | 85.8 | 70.7
CC(C)Oc1cc2c3c(oc2c2ccccc12)C(=O)c1ccccc1C3=O [5-isopropyloxydinaphtho-(1,2-b:2′,3′-d)furan-7,12-dione] | 72.4 | 54.9 | 47.3 | 44.9
O=C(O)c1nn(-c2ccc(S(=O)(=O)O)cc2)c(O)c1N=Nc1ccc(S(=O)(=O)O)cc1 [FD&C Yellow No. 5, reference compound] | 100 | 16.1 | 98.8 | 83.5
O=C1c2ccccc2C(=O)c2c1oc1cc(O)c3ccccc3c21 [5-hydroxydinaphtho(2,1-b:2′,3′-d)furan-8,13-dione] | 19.4 | 16.9 | 9.5 | 22.4
O=C1c2ccccc2C(=O)c2c1oc1ccc3ccccc3c21 [Dinaphtho(2,1-b:2′,3′-d)furan-8,13-dione, dinaphtho(2,1-b:2′,3′-d)furan-8,13-dione] | 88.7 | 10.7 | 88.0 | 75.6
CCOc1cc2c3c(oc2c2ccccc12)C(=O)c1ccccc1C3=O [5-ethoxydinaphtho(1,2-b:2′,3′-d)furan-7,12-dione] | 52.8 | 44.4 | 28.6 | 35.0
O=C1c2ccccc2C(=O)c2c1oc1ccc3cc(Br)ccc3c21 [3-bromodinaphtho(2,1-b:-2′,3′-d)furan-8,13-dione] | 99.4 | 7.6 | 99.1 | 82.5
O=S(=O)([O-])c1ccc(N=Nc2c(O)ccc3cc(S(=O)(=O)[O-])ccc23)cc1.[Na+].[Na+] [FD&C Yellow No. 6, reference compound] | 89.5 | 51.4 | 73.3 | 58.2
CCCCCCOc1cc2c3c(oc2c2ccccc12)C(=O)c1ccccc1C3=O [5-hexyloxydinaphtho-(1,2-b:2′,3′-d)furan-7,12-dione] | 72.0 | 50.8 | 51.0 | 48.9
